Values quoted from earlier work as cited in patent US20230116760A1, “STRUCTURALLY-STABILIZED ONCOLYTIC PEPTIDES AND USES THEREOF” (Dana-Farber Cancer Institute, Inc., priority 2019, published 2023).
At least one peptide structure holds a part that was inferred or is arguable (an end, a ring closure or a residue). Bridge positions count the residues as written; N and C are the ends. Square brackets hold non-standard residues; d marks the D form. Peptide text beside a SMILES is read from it. S5 = C=CCCC[C@](C)(N)C(=O)O

Tested on: bacterial infection
Settings: mice; Mourtada et al., Nature Biotech, 2019; cited from earlier work

SMILES: CC(C)[C@@H]1NC(=O)[C@@](C)(NC(=O)[C@H](C)NC(=O)[C@H](CCCCN)NC(=O)CNC(=O)[C@H](Cc2ccccc2)NC(=O)[C@H](CCCCN)NC(=O)[C@H](CCCCN)NC(=O)[C@H](CCCCN)NC(=O)[C@H](CO)NC(=O)[C@H](Cc2c[nH]cn2)NC(=O)[C@]2(C)CCCC=CCCC[C@](C)(NC(=O)CN)C(=O)NCC(=O)N[C@@H](CCCCN)C(=O)N[C@@H](Cc3ccccc3)C(=O)N2)CCCC=CCCC[C@@](C)(C(=O)N[C@@H](C)C(=O)N[C@@H](CCCCN)C(=O)N[C@@H](CCCCN)C(N)=O)NC(=O)[C@H](CCC(=O)O)NC(=O)CNC1=O [Mag(i+4)1,15 (A9K, B21A, N22K, S23K), GX1GKFX2HSKKKFGKAX3VGEX4AKK] (H-G[S5]GKF[S5]HSKKKFGKA[S5]VGE[S5]AKK-NH2; staple 2-6, 16-20)
- treatment of bacterial infection: effectively treat bacterial infection in mice
